Results reported in the supplement of paper PMC10849652.
This is one part of the list.

Protein sequences, listed by entry. Tags and fused reporters are not part of them. Lines headed by an entry give the natural chain unless they say otherwise; changes in a name come on top.
UniProt Q13724: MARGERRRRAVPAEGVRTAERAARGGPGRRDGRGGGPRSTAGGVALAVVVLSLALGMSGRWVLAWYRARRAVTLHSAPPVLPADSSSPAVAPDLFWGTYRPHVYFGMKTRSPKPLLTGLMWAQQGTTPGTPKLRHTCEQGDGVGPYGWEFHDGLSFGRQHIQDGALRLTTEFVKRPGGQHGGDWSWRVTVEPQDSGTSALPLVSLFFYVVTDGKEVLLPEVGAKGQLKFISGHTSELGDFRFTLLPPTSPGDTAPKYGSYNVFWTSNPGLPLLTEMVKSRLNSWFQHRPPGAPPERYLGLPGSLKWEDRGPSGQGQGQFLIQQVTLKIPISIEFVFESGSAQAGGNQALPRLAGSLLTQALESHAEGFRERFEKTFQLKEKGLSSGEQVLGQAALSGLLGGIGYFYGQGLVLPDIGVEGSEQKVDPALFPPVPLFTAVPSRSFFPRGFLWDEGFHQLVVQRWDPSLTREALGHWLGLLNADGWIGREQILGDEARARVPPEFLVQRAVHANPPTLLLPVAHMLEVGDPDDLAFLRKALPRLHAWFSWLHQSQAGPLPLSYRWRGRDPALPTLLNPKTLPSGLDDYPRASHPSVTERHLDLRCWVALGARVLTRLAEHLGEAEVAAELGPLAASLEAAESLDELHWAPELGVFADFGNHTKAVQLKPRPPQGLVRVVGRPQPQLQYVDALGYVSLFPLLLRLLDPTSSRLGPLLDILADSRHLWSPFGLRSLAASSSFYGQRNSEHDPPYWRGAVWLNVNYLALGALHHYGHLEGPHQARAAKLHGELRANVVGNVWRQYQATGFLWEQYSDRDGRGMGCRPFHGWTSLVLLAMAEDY
UniProt Q9UH92: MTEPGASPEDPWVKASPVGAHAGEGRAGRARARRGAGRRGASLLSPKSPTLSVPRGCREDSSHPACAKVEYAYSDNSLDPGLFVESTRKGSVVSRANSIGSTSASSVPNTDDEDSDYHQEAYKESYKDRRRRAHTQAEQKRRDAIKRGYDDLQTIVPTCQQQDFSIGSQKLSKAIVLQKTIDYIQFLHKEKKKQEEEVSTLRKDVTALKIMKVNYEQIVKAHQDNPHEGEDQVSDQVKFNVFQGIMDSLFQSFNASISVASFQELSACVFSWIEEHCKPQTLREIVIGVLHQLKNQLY
UniProt O96007: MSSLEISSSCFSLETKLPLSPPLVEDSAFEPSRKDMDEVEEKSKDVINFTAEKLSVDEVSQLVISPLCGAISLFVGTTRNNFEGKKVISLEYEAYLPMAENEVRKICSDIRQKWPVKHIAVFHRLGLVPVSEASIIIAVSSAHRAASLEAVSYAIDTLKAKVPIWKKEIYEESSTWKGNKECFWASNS
UniProt Q03111: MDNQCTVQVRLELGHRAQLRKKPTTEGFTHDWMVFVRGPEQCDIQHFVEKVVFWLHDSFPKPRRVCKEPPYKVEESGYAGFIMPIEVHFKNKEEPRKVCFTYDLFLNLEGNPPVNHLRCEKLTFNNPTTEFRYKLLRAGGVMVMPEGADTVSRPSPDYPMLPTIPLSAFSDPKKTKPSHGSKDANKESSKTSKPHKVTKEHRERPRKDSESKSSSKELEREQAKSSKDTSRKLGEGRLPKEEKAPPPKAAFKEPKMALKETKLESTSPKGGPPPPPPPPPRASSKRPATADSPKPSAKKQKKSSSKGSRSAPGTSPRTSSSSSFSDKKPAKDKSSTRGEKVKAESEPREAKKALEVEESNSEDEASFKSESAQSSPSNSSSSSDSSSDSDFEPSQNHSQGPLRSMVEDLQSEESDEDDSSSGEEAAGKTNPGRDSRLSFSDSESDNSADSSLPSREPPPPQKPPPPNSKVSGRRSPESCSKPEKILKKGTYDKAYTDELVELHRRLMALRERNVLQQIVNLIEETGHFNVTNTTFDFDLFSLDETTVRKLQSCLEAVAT
UniProt Q99547: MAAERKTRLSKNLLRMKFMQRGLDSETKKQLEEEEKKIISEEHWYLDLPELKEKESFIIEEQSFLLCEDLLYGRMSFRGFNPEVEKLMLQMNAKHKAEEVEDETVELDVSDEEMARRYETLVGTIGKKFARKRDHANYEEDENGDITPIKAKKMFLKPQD
UniProt P25325: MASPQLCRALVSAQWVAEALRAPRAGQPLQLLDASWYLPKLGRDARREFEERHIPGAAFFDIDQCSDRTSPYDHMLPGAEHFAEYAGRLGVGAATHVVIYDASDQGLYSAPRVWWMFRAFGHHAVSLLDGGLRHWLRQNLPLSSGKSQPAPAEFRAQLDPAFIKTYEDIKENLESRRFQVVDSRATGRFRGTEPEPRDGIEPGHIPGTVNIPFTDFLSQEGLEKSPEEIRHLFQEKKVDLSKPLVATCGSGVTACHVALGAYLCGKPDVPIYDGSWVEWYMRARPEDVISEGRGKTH
UniProt Q7RTP6, whole entry, looked up: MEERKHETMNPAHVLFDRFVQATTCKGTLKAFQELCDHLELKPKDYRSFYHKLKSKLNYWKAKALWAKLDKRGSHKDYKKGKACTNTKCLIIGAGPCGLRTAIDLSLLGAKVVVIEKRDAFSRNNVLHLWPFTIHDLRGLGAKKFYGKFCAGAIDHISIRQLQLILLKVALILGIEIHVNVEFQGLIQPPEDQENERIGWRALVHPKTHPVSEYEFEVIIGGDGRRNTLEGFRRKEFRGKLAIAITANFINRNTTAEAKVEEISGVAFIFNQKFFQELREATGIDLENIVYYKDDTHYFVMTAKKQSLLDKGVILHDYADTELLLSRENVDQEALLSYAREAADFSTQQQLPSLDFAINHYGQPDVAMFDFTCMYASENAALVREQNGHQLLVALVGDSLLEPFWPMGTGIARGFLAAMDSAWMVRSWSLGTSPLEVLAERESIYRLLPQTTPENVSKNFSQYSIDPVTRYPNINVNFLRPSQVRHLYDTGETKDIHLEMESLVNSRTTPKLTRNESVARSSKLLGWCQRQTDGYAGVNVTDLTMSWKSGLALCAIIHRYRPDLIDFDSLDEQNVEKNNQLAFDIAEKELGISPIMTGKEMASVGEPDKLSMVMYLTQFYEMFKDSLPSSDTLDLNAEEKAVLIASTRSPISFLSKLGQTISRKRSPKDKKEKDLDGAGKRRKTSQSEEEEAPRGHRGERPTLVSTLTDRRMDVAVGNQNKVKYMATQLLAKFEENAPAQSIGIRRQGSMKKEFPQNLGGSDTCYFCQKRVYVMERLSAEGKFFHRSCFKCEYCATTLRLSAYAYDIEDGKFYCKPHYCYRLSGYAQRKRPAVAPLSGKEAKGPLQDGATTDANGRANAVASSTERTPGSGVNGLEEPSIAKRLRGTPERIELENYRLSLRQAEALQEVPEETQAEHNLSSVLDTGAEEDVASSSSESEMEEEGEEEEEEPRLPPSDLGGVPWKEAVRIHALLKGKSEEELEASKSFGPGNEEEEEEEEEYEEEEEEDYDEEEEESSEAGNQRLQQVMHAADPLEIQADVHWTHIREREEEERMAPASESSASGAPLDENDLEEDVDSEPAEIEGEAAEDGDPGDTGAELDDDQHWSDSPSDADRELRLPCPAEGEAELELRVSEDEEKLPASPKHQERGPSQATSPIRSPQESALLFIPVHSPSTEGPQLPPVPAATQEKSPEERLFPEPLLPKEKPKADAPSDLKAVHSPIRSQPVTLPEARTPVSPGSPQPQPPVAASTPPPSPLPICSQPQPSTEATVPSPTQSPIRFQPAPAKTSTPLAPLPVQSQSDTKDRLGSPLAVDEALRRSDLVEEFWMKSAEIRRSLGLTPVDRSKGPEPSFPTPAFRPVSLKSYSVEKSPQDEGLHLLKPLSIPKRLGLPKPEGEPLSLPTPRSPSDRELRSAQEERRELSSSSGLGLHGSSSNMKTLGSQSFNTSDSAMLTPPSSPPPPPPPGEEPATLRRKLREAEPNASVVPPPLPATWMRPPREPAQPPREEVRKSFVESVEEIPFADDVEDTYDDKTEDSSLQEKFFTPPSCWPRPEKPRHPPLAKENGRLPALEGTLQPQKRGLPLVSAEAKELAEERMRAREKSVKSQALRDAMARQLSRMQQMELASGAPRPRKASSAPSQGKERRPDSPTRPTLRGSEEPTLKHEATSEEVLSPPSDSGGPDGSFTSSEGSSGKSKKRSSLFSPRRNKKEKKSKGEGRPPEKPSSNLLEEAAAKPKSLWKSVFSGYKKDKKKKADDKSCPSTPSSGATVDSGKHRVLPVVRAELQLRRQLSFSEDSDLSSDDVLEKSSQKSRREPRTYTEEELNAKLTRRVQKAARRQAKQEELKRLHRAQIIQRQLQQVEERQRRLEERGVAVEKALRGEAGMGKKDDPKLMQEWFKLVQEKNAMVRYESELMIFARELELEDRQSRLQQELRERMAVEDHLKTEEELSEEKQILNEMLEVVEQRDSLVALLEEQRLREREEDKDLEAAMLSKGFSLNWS
UniProt Q9HC36: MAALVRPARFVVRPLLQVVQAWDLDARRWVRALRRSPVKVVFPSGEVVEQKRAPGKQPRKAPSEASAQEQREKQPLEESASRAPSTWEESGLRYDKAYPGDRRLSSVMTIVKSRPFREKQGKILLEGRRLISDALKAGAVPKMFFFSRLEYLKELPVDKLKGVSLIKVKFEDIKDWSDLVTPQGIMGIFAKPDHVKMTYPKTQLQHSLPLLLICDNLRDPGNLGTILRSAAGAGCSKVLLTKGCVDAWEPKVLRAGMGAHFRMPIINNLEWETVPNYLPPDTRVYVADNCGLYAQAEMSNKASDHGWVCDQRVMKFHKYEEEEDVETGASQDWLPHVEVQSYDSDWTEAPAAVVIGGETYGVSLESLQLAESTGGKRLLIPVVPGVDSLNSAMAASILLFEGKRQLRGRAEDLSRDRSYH
UniProt Q9NYP9: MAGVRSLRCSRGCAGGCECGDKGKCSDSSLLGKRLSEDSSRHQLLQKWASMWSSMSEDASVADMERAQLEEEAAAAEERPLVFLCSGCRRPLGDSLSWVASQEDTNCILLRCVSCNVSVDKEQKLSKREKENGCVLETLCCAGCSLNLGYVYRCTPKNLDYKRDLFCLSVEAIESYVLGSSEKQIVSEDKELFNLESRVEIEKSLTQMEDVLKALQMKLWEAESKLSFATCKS
UniProt Q9NPA3, whole entry, looked up: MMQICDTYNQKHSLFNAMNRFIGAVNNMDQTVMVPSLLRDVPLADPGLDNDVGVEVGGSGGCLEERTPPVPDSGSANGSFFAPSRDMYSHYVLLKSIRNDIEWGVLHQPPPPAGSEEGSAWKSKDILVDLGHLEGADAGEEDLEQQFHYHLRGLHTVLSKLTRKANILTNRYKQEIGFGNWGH
UniProt Q8WV92, whole entry, looked up: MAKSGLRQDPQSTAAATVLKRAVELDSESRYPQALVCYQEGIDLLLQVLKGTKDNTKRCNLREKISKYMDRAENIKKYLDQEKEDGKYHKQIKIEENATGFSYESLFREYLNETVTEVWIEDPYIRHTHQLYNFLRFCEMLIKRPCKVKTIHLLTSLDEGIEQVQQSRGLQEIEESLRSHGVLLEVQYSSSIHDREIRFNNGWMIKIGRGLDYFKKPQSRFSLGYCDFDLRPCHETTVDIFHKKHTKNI
UniProt Q9BWT6: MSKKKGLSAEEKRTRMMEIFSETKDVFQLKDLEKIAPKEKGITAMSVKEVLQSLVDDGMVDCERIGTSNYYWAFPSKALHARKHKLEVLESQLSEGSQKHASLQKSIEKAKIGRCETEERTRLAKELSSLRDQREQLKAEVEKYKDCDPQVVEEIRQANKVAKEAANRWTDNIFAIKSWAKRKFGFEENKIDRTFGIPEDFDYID
UniProt Q14149: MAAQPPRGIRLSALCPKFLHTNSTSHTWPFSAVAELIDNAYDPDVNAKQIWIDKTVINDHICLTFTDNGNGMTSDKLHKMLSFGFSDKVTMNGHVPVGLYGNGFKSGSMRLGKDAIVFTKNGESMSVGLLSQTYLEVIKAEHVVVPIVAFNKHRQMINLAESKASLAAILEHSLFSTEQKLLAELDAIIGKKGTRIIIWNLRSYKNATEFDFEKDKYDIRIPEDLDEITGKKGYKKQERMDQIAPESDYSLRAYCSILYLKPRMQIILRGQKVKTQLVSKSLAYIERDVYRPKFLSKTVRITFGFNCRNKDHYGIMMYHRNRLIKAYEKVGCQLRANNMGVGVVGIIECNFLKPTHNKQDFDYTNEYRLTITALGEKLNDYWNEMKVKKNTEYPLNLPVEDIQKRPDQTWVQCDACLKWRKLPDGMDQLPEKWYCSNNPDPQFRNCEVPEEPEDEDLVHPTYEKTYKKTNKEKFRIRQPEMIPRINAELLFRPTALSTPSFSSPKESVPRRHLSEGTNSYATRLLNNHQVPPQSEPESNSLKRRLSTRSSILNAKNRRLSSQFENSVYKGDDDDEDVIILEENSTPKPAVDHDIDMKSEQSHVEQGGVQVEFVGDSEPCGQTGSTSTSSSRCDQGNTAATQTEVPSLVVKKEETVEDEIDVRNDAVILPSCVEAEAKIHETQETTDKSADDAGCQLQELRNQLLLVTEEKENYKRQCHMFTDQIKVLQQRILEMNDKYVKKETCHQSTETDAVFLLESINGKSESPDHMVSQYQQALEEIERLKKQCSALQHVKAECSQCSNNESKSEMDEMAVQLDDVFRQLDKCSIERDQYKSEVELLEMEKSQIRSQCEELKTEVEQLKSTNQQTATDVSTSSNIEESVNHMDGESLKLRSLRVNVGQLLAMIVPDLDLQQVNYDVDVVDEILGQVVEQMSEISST

Legend:
Assay in all cases: log2 fold change, soluble protein after heating vs DMSO (PISA); higher = thermal stabilisation; K562 lysate, 10 uM; active = over 0.2 and 3.5 SD of the protein, either way, in both replicates (recomputed)
alvocidib = compound: CN1CC[C@H](c2c(O)cc(O)c3c(=O)cc(-c4ccccc4Cl)oc23)[C@H](O)C1 [alvocidib]
Procedure, shortened: (§1)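 K562 pellets were dounce-homogenised in PBS pH 7.4 with 1 mM MgCl2, and the crude extract at 1 mg/mL protein was treated with 10 μM compound for 30 min. Aliquots were heated for 3 min across 48°C-58°C, pooled, and brought to 0.5% NP-40 at 4°C; soluble protein was the supernatant after 21,000xg for 90 min. Soluble protein was quantified by TMTpro 16plex LC-MS/MS with channel sums equalised, and reported as log2 fold change in thermal stability against DMSO controls, with values from duplicates.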

Tubastatin A = compound: CN1CCc2c(c3ccccc3n2Cc2ccc(C(=O)NO)cc2)C1 [Tubastatin A]
Procedure, shortened: as §1

[1] = compound: CNC(=O)C1=CC=CC=C1NC2=NC(=NC=C2Cl)NC3=C(C=C(C=C3)N4CCOCC4)OC
Procedure, shortened: as §1

defactinib = compound: CNC(=O)c1ccc(Nc2ncc(C(F)(F)F)c(NCc3nccnc3N(C)S(C)(=O)=O)n2)cc1 [defactinib]
Procedure, shortened: as §1

[2] = compound: CNc1nc(-c2ccc3c(N)n[nH]c3c2)cc(N2C[C@@H](C(=O)NC3CCCCC3)CC[C@H]2C)n1
Procedure, shortened: as §1

encorafenib = compound: COC(=O)N[C@@H](C)CNc1nccc(-c2cn(C(C)C)nc2-c2cc(Cl)cc(NS(C)(=O)=O)c2F)n1 [encorafenib]
Procedure, shortened: as §1

[3] = compound: COC(=O)[C@H](CCSC)NC(=O)C1=C(C=C(C=C1)NC[C@H](CS)N)C2=CC=CC=C2
Procedure, shortened: as §1

alisertib = compound: COc1cc(Nc2ncc3c(n2)-c2ccc(Cl)cc2C(c2c(F)cccc2OC)=NC3)ccc1C(=O)O [alisertib]
Procedure, shortened: as §1

[4] = compound: COc1cc2nc(-c3cc(F)ccc3O)nc(N[C@@H]3CNC[C@H]3C(C)(C)O)c2cc1OC
Procedure, shortened: as §1

gefitinib = compound: COc1cc2ncnc(Nc3ccc(F)c(Cl)c3)c2cc1OCCCN1CCOCC1 [gefitinib]
Procedure, shortened: as §1

Measured: log2 fold change

MRPL1 (UniProt Q9BYD6)
inactive: alvocidib -0.028 | Tubastatin A -0.049 | [1] -0.049 | defactinib -0.002 | [2] 0.012 | encorafenib -0.01 | [3] 0.052 | alisertib -0.009 | [4] 0.003 | gefitinib 0.034

MOGS (UniProt Q13724)
inactive: alvocidib 0.012 | Tubastatin A 0.071 | [1] -0.018 | defactinib 0.03 | [2] -0.012 | encorafenib 0.046 | [3] -0.017 | alisertib 0.035 | [4] -0.005 | gefitinib -0.025

MLX (UniProt Q9UH92)
inactive: alvocidib 0.007 | Tubastatin A -0.091 | [1] -0.007 | defactinib -0.061 | [2] 0.01 | encorafenib 0.052 | [3] 0.07 | alisertib 0.086 | [4] 0.044 | gefitinib 0.044

MOCS2 (UniProt O96007)
inactive: alvocidib 0.026 | Tubastatin A -0.005 | [1] 0.034 | defactinib -0.018 | [2] -0.002 | encorafenib 0.012 | [3] -0.066 | alisertib 0.029 | [4] -0.02 | gefitinib -0.07

MINPP1 (UniProt Q9UNW1)
inactive: alvocidib 0.033 | Tubastatin A 0.013 | [1] 0.011 | defactinib 0.026 | [2] -0.073 | encorafenib 0.007 | [3] -0.029 | alisertib -0.012 | [4] 0.014 | gefitinib 0.016

MPP6 (UniProt Q9NZW5)
inactive: alvocidib 0.033 | Tubastatin A -0.026 | [1] 0.027 | defactinib -0.011 | [2] 0.028 | encorafenib -0.01 | [3] -0.027 | alisertib 0.016 | [4] -0.036 | gefitinib -0.006

MRI1 (UniProt Q9BV20)
inactive: alvocidib -0.041 | Tubastatin A 0.016 | [1] 0.014 | defactinib -0.002 | [2] 0.001 | encorafenib 0.001 | [3] -0.01 | alisertib -0.024 | [4] 0.027 | gefitinib -0.002

MLLT1 (UniProt Q03111)
inactive: alvocidib -0.001 | Tubastatin A 0.02 | [1] 0.031 | defactinib 0.039 | [2] 0.087 | encorafenib 0.053 | [3] -0.064 | alisertib 0.017 | [4] 0 | gefitinib -0.027

MORC2 (UniProt Q9Y6X9)
inactive: alvocidib 0.018 | Tubastatin A -0.095 | [1] 0 | defactinib 0.013 | [2] -0.012 | encorafenib 0.02 | [3] 0.025 | alisertib 0.001 | [4] -0.008 | gefitinib -0.02

MORF4L2 (UniProt Q15014)
inactive: alvocidib -0.029 | Tubastatin A -0.007 | [1] 0.003 | defactinib -0.004 | [2] 0.01 | encorafenib -0.015 | [3] -0.086 | alisertib 0.044 | [4] -0.01 | gefitinib 0.039

MICU1 isoform 3 (UniProt Q9BPX6)
inactive: alvocidib 0.092 | Tubastatin A -0.065 | [1] 0 | defactinib 0.026 | [2] -0.061 | encorafenib -0.037 | [3] -0.05 | alisertib -0.025 | [4] -0.063 | gefitinib 0.023

MPHOSPH6 (UniProt Q99547)
inactive: alvocidib 0.039 | Tubastatin A 0.014 | [1] -0.014 | defactinib 0.02 | [2] 0.042 | encorafenib 0.021 | [3] -0.026 | alisertib 0.035 | [4] 0.003 | gefitinib 0.004

MRPL20 (UniProt Q9BYC9)
inactive: alvocidib -0.047 | Tubastatin A 0.059 | [1] 0.063 | defactinib -0.04 | [2] 0.092 | encorafenib 0.004 | [3] 0.03 | alisertib 0.006 | [4] -0.102 | gefitinib 0.001

MPST isoform 2 (UniProt P25325)
inactive: alvocidib 0.019 | Tubastatin A -0.031 | [1] 0.045 | defactinib -0.002 | [2] -0.018 | encorafenib 0.004 | [3] 0.062 | alisertib -0.003 | [4] -0.008 | gefitinib -0.017

MICAL3 (UniProt Q7RTP6)
inactive: alvocidib -0.041 | Tubastatin A 0.009 | [1] 0.027 | defactinib -0.006 | [2] 0.011 | encorafenib 0.001 | [3] 0.013 | alisertib 0.03 | [4] 0.008 | gefitinib 0.006

MIA2 (UniProt Q96PC5)
inactive: alvocidib 0.073 | Tubastatin A -0.046 | [1] -0.104 | defactinib -0.002 | [2] 0.008 | encorafenib 0.035 | [3] -0.087 | alisertib -0.034 | [4] -0.071 | gefitinib -0.064

MMS19 isoform 8 (UniProt Q96T76)
inactive: alvocidib 0.008 | Tubastatin A -0.144 | [1] 0 | defactinib -0.027 | [2] 0.007 | encorafenib 0.014 | [3] 0.128 | alisertib 0.002 | [4] 0.001 | gefitinib -0.022

MRM3 (UniProt Q9HC36)
inactive: alvocidib -0.031 | Tubastatin A 0.015 | [1] 0.029 | defactinib -0.006 | [2] 0.034 | encorafenib -0.002 | [3] -0.003 | alisertib 0.06 | [4] 0.018 | gefitinib 0.054

MOCOS (UniProt Q96EN8)
inactive: alvocidib 0.009 | Tubastatin A -0.026 | [1] 0.018 | defactinib 0.095 | [2] 0.058 | encorafenib -0.046 | [3] -0.023 | alisertib 0.007 | [4] 0.005 | gefitinib -0.027

MIS18A (UniProt Q9NYP9)
inactive: alvocidib 0.064 | Tubastatin A -0.001 | [1] 0.045 | defactinib -0.008 | [2] 0.015 | encorafenib 0.015 | [3] -0.035 | alisertib -0.015 | [4] -0.019 | gefitinib 0.026

MRPL21 (UniProt Q7Z2W9)
inactive: alvocidib -0.023 | Tubastatin A 0.061 | [1] -0.032 | defactinib 0.044 | [2] -0.033 | encorafenib -0.001 | [3] 0.017 | alisertib 0.014 | [4] 0.009 | gefitinib -0.02

MOB4 (UniProt Q9Y3A3)
inactive: alvocidib -0.027 | Tubastatin A 0.022 | [1] -0.013 | defactinib 0.037 | [2] 0.031 | encorafenib 0.014 | [3] -0.096 | alisertib -0.018 | [4] -0.048 | gefitinib -0.024

MID1IP1 (UniProt Q9NPA3)
inactive: alvocidib 0.04 | Tubastatin A -0.11 | [1] 0.064 | defactinib 0.052 | [2] 0.029 | encorafenib 0.015 | [3] -0.071 | alisertib 0.007 | gefitinib 0.012

MKRN2 (UniProt Q9H000)
inactive: alvocidib 0.075 | Tubastatin A -0.068 | [1] 0.021 | defactinib -0.037 | [2] -0.027 | encorafenib -0.006 | [3] -0.021 | alisertib 0.037 | [4] -0.043 | gefitinib 0.001

Copied from the entries so far (six entries):
MPP6 (UniProt Q9NZW5)
inactive: alvocidib 0.033 | Tubastatin A -0.026 | [1] 0.027 | defactinib -0.011 | [2] 0.028 | encorafenib -0.01 | [3] -0.027 | alisertib 0.016 | [4] -0.036 | gefitinib -0.006

MRI1 (UniProt Q9BV20)
inactive: alvocidib -0.041 | Tubastatin A 0.016 | [1] 0.014 | defactinib -0.002 | [2] 0.001 | encorafenib 0.001 | [3] -0.01 | alisertib -0.024 | [4] 0.027 | gefitinib -0.002

MLLT1 (UniProt Q03111)
inactive: alvocidib -0.001 | Tubastatin A 0.02 | [1] 0.031 | defactinib 0.039 | [2] 0.087 | encorafenib 0.053 | [3] -0.064 | alisertib 0.017 | [4] 0 | gefitinib -0.027

MORC2 (UniProt Q9Y6X9)
inactive: alvocidib 0.018 | Tubastatin A -0.095 | [1] 0 | defactinib 0.013 | [2] -0.012 | encorafenib 0.02 | [3] 0.025 | alisertib 0.001 | [4] -0.008 | gefitinib -0.02

MORF4L2 (UniProt Q15014)
inactive: alvocidib -0.029 | Tubastatin A -0.007 | [1] 0.003 | defactinib -0.004 | [2] 0.01 | encorafenib -0.015 | [3] -0.086 | alisertib 0.044 | [4] -0.01 | gefitinib 0.039

MICU1 isoform 3 (UniProt Q9BPX6)
inactive: alvocidib 0.092 | Tubastatin A -0.065 | [1] 0 | defactinib 0.026 | [2] -0.061 | encorafenib -0.037 | [3] -0.05 | alisertib -0.025 | [4] -0.063 | gefitinib 0.023

The list continues.

MITD1 (UniProt Q8WV92)
inactive: alvocidib 0.021 | Tubastatin A 0.046 | [1] 0.044 | defactinib -0.038 | [2] -0.026 | encorafenib -0.04 | [3] 0.143 | alisertib 0.041 | [4] 0.018 | gefitinib 0.022

MRPL23 (UniProt Q16540)
inactive: alvocidib 0.043 | Tubastatin A -0.031 | [1] -0.058 | defactinib 0.037 | [2] 0.077 | encorafenib -0.029 | [3] 0.057 | alisertib 0.01 | [4] 0.004 | gefitinib 0.07

MND1 (UniProt Q9BWT6)
inactive: alvocidib 0.068 | Tubastatin A -0.023 | [1] 0.02 | defactinib 0.038 | [2] -0.044 | encorafenib -0.002 | [3] -0.036 | alisertib 0.007 | [4] -0.003 | gefitinib -0.01

MICALL2 (UniProt Q8IY33)
inactive: alvocidib -0.011 | Tubastatin A -0.001 | [1] 0.055 | defactinib -0.024 | [2] 0.01 | encorafenib 0.026 | [3] -0.069 | alisertib -0.03 | [4] 0.024 | gefitinib 0.037

MGST2 (UniProt Q99735)
inactive: alvocidib -0.162 | Tubastatin A 0.095 | [1] 0.025 | defactinib 0.058 | [2] 0.108 | encorafenib -0.008 | [3] 0.031 | alisertib -0.027 | [4] -0.066 | gefitinib 0.033

MORC3 (UniProt Q14149)
inactive: alvocidib -0.015 | Tubastatin A -0.098 | [1] 0.017 | defactinib 0.018 | [2] -0.028 | encorafenib 0.007 | [3] 0.038 | alisertib -0.003 | [4] 0.021 | gefitinib -0.01
